Reference: patent publication US20250283871A1, “COMPOSITIONS AND METHODS FOR MODULATING THE INTERACTION BETWEEN SS18-SSX FUSION ONCOPROTEIN AND NUCLEOSOMES” (Dana-Farber Cancer Institute, Inc., priority 2020, published 2025)

B1: DDX56 (protein, UniProt Q9NY93 1-547, looked up)
Probable ATP-dependent RNA …: MEDSEALGFEHMGLDPRLLQAVTDLGWSRPTLIQEKAIPLALEGKDLLARARTGSGKTAAYAIPMLQLLLHRKATGPVVEQAVRGLVLVPTKELARQAQSMIQQLATYCARDVRVANVSAAEDSVSQRAVLMEKPDVVVGTPSRILSHLQQDSLKLRDSLELLVVDEADLLFSFGFEEELKSLLCHLPRIYQAFLMSATFNEDVQALKELILHNPVTLKLQESQLPGPDQLQQFQVVCETEEDKFLLLYALLKLSLIRGKSLLFVNTLERSYRLRLFLEQFSIPTCVLNGELPLRSRCHIISQFNQGFYDCVIATDAEVLGAPVKGKRRGRGPKGDKASDPEAGVARGIDFHHVSAVLNFDLPPTPEAYIHRAGRTARANNPGIVLTFVLPTEQFHLGKIEELLSGENRGPILLPYQFRMEEIEGFRYRCRDAMRSVTKQAIREARLKEIKEELLHSEKLKTYFEDNPRDLQLLRHDLPLHPAVVKPHLGHVPDYLVPPALRGLVRPHKKRKKLSSSCRKAKRAKSQNPLRSFKHKGKKFRPTAKPS
B2: USP11 (protein, UniProt P51784 1-963, looked up)
Ubiquitin carboxyl-terminal …: MAVAPRLFGGLCFRFRDQNPEVAVEGRLPISHSCVGCRRERTAMATVAANPAAAAAAVAAAAAVTEDREPQHEELPGLDSQWRQIENGESGRERPLRAGESWFLVEKHWYKQWEAYVQGGDQDSSTFPGCINNATLFQDEINWRLKEGLVEGEDYVLLPAAAWHYLVSWYGLEHGQPPIERKVIELPNIQKVEVYPVELLLVRHNDLGKSHTVQFSHTDSIGLVLRTARERFLVEPQEDTRLWAKNSEGSLDRLYDTHITVLDAALETGQLIIMETRKKDGTWPSAQLHVMNNNMSEEDEDFKGQPGICGLTNLGNTCFMNSALQCLSNVPQLTEYFLNNCYLEELNFRNPLGMKGEIAEAYADLVKQAWSGHHRSIVPHVFKNKVGHFASQFLGYQQHDSQELLSFLLDGLHEDLNRVKKKEYVELCDAAGRPDQEVAQEAWQNHKRRNDSVIVDTFHGLFKSTLVCPDCGNVSVTFDPFCYLSVPLPISHKRVLEVFFIPMDPRRKPEQHRLVVPKKGKISDLCVALSKHTGISPERMMVADVFSHRFYKLYQLEEPLSSILDRDDIFVYEVSGRIEAIEGSREDIVVPVYLRERTPARDYNNSYYGLMLFGHPLLVSVPRDRFTWEGLYNVLMYRLSRYVTKPNSDDEDDGDEKEDDEEDKDDVPGPSTGGSLRDPEPEQAGPSSGVTNRCPFLLDNCLGTSQWPPRRRRKQLFTLQTVNSNGTSDRTTSPEEVHAQPYIAIDWEPEMKKRYYDEVEAEGYVKHDCVGYVMKKAPVRLQECIELFTTVETLEKENPWYCPSCKQHQLATKKLDLWMLPEILIIHLKRFSYTKFSREKLDTLVEFPIRDLDFSEFVIQPQNESNPELYKYDLIAVSNHYGGMRDGHYTTFACNKDSGQWHYFDDNSVSPVNENQIESKAAYVLFYQRQDVARRLLSPAGSSGAPASPACSSPPSSEFMDVN
B3: RSF1 (protein, UniProt Q96T23 1-1441, looked up)
Remodeling and spacing factor …: MATAAAAAAVMAPPGCPGSCPNFAVVCSFLERYGPLLDLPELPFPELERVLQAPPPDVGNGEVPKELVELHLKLMRKIGKSVTADRWEKYLIKICQEFNSTWAWEMEKKGYLEMSVECKLALLKYLCECQFDDNLKFKNIINEEDADTMRLQPIGRDKDGLMYWYQLDQDHNVRMYIEEQDDQDGSSWKCIVRNRNELAETLALLKAQIDPVLLKNSSQQDNSSRESPSLEDEETKKEEETPKQEEQKESEKMKSEEQPMDLENRSTANVLEETTVKKEKEDEKELVKLPVIVKLEKPLPENEEKKIIKEESDSFKENVKPIKVEVKECRADPKDTKSSMEKPVAQEPERIEFGGNIKSSHEITEKSTEETEKLKNDQQAKIPLKKREIKLSDDFDSPVKGPLCKSVTPTKEFLKDEIKQEEETCKRISTITALGHEGKQLVNGEVSDERVAPNFKTEPIETKFYETKEESYSPSKDRNIITEGNGTESLNSVITSMKTGELEKETAPLRKDADSSISVLEIHSQKAQIEEPDPPEMETSLDSSEMAKDLSSKTALSSTESCTMKGEEKSPKTKKDKRPPILECLEKLEKSKKTFLDKDAQRLSPIPEEVPKSTLESEKPGSPEAAETSPPSNIIDHCEKLASEKEVVECQSTSTVGGQSVKKVDLETLKEDSEFTKVEMDNLDNAQTSGIEEPSETKGSMQKSKFKYKLVPEEETTASENTEITSERQKEGIKLTIRISSRKKKPDSPPKVLEPENKQEKTEKEEEKTNVGRTLRRSPRISRPTAKVAEIRDQKADKKRGEGEDEVEEESTALQKTDKKEILKKSEKDTNSKVSKVKPKGKVRWTGSRTRGRWKYSSNDESEGSGSEKSSAASEEEEEKESEEAILADDDEPCKKCGLPNHPELILLCDSCDSGYHTACLRPPLMIIPDGEWFCPPCQHKLLCEKLEEQLQDLDVALKKKERAERRKERLVYVGISIENIIPPQEPDFSEDQEEKKKDSKKSKANLLERRSTRTRKCISYRFDEFDEAIDEAIEDDIKEADGGGVGRGKDISTITGHRGKDISTILDEERKENKRPQRAAAARRKKRRRLNDLDSDSNLDEEESEDEFKISDGSQDEFVVSDENPDESEEDPPSNDDSDTDFCSRRLRRHPSRPMRQSRRLRRKTPKKKYSDDDEEEESEENSRDSESDFSDDFSDDFVETRRRRSRRNQKRQINYKEDSESDGSQKSLRRGKEIRRVHKRRLSSSESEESYLSKNSEDDELAKESKRSVRKRGRSTDEYSEADEEEEEEEGKPSRKRLHRIETDEEESCDNAHGDANQPARDSQPRVLPSEQESTKKPYRIESDEEEDFENVGKVGSPLDYSLVDLPSTNGQSPGKAIENLIGKPTEKSQTPKDNSTASASLASNGTSGGQEAGAPEEEEDELLRVTDLVDYVCNSEQL
B4: NIPSNAP2 (protein, UniProt O75323 24-286, looked up)
Protein NipSnap homolog 2: CSLLPRLRTWTSSSNRSREDSWLKSLFVRKVDPRKDAHSNLLAKKETSNLYKLQFHNVKPECLEAYNKICQEVLPKIHEDKHYPCTLVGTWNTWYGEQDQAVHLWRYEGGYPALTEVMNKLRENKEFLEFRKARSDMLLSRKNQLLLEFSFWNEPVPRSGPNIYELRSYQLRPGTMIEWGNYWARAIRFRQDGNEAVGGFFSQIGQLYMVHHLWAYRDLQTREDIRNAAWHKHGWEELVYYTVPLIQEMESRIMIPLKTSPLQ
B5: NRM (protein, UniProt Q8IXM6 1-262, looked up)
Nurim: MAPALLLIPAALASFILAFGTGVEFVRFTSLRPLLGGIPESGGPDARQGWLAALQDRSILAPLAWDLGLLLLFVGQHSLMAAERVKAWTSRYFGVLQRSLYVACTALALQLVMRYWEPIPKGPVLWEARAEPWATWVPLLCFVLHVISWLLIFSILLVFDYAELMGLKQVYYHVLGLGEPLALKSPRALRLFSHLRHPVCVELLTVLWVVPTLGTDRLLLAFLLTLYLGLAHGLDQQDLRYLRAQLQRKLHLLSRPQDGEAE
B6: SF3B3 (protein)
chain: MFLYNLTLQRATGISFAIHGNFSGTKQQEIVVSRGKILELLRPDPNTGKVHTLLTVEVFGVIRSLMAFRLTGGTKDYIVVGSDSGRIVILEYQPSKNMFEKIHQETFGKSGCRRIVPGQFLAVDPKGRAVMISAIEKQKLVYILNRDAAARLTISSPLEAHKANTLVYHVVGVDVGFENPMFACLEMDYEEADNDPTGEAAANTQQTLTFYELDLGLNHVVRKYSEPLEEHGNFLITVPGGSDGPSGVLICSENYITYKNFGDQPDIRCPIPRRRNDLDDPERGMIFVCSATHKTKSMFFFLAQTEQGDIFKITLETDEDMVTEIRLKYFDTVPVAAAMCVLKTGFLFVASEFGNHYLYQIAHLGDDDEEPEFSSAMPLEEGDTFFFQPRPLKNLVLVDELDSLSPILFCQIADLANEDTPQLYVACGRGPRSSLRVLRHGLEVSEMAVSELPGNPNAVWTVRRHIEDEFDAYIIVSFVNATLVLSIGETVEEVTDSGFLGTTPTLSCSLLGDDALVQVYPDGIRHIRADKRVNEWKTPGKKTIVKCAVNQRQVVIALTGGELVYFEMDPSGQLNEYTERKEMSADVVCMSLANVPPGEQRSRFLAVGLVDNTVRIISLDPSDCLQPLSMQALPAQPESLCIVEMGGTEKQDELGERGSIGFLYLNIGLQNGVLLRTVLDPVTGDLSDTRTRYLGSRPVKLFRVRMQGQEAVLAMSSRSWLSYSYQSRFHLTPLSYETLEFASGFASEQCPEGIVAISTNTLRILALEKLGAVFNQVAFPLQYTPRKFVIHPESNNLIIIETDHNAYTEATKAQRKQQMAEEMVEAAGEDERELAAEMAAAFLNENLPESIFGAPKAGNGQWASVIRVMNPIQGNTLDLVQLEQNEAAFSVAVCRFSNTGEDWYVLVGVAKDLILNPRSVAGGFVYTYKLVNNGEKLEFLHKTPVEEVPAAIAPFQGRVLIGVGKLLRVYDLGKKKLLRKCENKHIANYISGIQTIGHRVIVSDVQESFIWVRYKRNENQLIIFADDTYPRWVTTASLLDYDTVAGADKFGNICVVRLPPNTNDEVDEDPTGNKALWDRGLLNGASQKAEVIMNYHVGETVLSLQKTTLIPGGSESLVYTTLSGGIGILVPFTSHEDHDFFQHVEMHLRSEHPPLCGRDHLSFRSYYFPVKNVIDGDLCEQFNSMEPNKQKNVSEELDRTPPEVSKKLEDIRTRYAF

System: BAF complex subunits and histone proteins
Test: Mass spectrometry proteomics of purified HA-SS18 WT and HA-SS18-SSX1 complexes (Tables 5A-5E)
Parameters: species or system human
[1] = HA-SS18SSX1_CHR_peptides: proteins found in HA-SS18-SSX1 BAF complex purification from solubilized chromatin (CHR), HEK-293T
[2] = HA-SS18SSX1_CHR_peptides: protein identified in the HA-SS18-SSX1 purification from solubilized chromatin (CHR), HEK-293T
[3] = HA-SS18WT_CHR_peptides: HA-SS18 WT purification from nuclease-treated solubilized chromatin (CHR), HEK-293T, label = protein identified
[4] = HA-SS18SSX1_NE_peptides: protein co-purified with HA-SS18-SSX1 BAF complexes from soluble nuclear extract (NE), HEK-293T cells
[5] = HA-SS18WT_CHR_peptides: protein identified in HA-SS18 WT BAF complex purification from nuclease-treated solubilized chromatin (CHR), HEK-293T
[6] = HA-SS18WT_NE_peptides: proteins co-purified with HA-SS18 WT from nuclear extract (NE), HEK-293T
[7] = HA-SS18WT_NE_peptides: HA-SS18 WT complexes purified from nuclear extract (NE), HEK-293T, label = protein identified (Gene Symbol)

Molecule	Total (peptides) [1]	Unique (peptides) [1]	Total (total peptides) [2]	Unique (unique peptides) [2]	Total (peptides) [3]	Unique (peptides) [3]	Total (peptides) [4]	Unique (peptides) [4]	Total (total peptides) [5]	Unique (unique peptides) [5]	other results
B1	1	1									
B2	1	1									
B3			20	18	9	7					
B4	1	1					2	2	2	1	Total (peptides) [6]: 1; Unique (peptides) [6]: 1
B5	1	1							1	1	
B6			20	18	9	9	2	2			Total (peptides) [7]: 3; Unique (peptides) [7]: 3
